# According to PubChem BioAssay AID449750 (Broad Institute, 2010):
# Hit rate of the full screen: of about 2,100 compounds, about 1,400 (67%) were called active. So high a share suggests a set chosen from earlier hits. Listed are the inconclusive results; actives and inactives stand elsewhere. The rule behind the calls is not given here.
# Assay: non-covalent RecA intein splicing inhibitors, dose response, biochemical, cell-free, fluorescence, secondary screen (AID 449750);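 note: 0% = neutral control wells and -100% = positive control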
# Conditions: at 38 µM (top of the series)
row,SMILES,"activity change, negative = inhibition"
1,COC(=O)c1ccccc1NC1=C/C(=N\S(=O)(=O)c2cccs2)c2ccccc2C1=O,inconclusive: -16.8%
